Results reported in PubChem BioAssay AID1487 (National Center for Advancing Translational Sciences (NCATS), 2009).
The list shows a part of the results. The main result of the screen is listed elsewhere. These columns were measured beside it and carry no call. Compounds called inactive in the main read-out are mostly missing here. Potencies come from curve fits of mixed quality, noted in brackets.

Assay: qHTS Assay for Modulators of Lamin A Splicing
Conditions: HeLa LMNA splicing GFP/RFP minigene ratio, 48 h
In short: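 S3 HeLa stable clones carrying a lamin A-EGFP splicing minigene plus DsRed2 were seeded at 600 cells/well in Opti-MEM with 2% FBS, pin-dosed and incubated 48 h at 37°C. Acumen cytometry (488 nm) gave the GFP/RFP total-intensity ratio.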

[1] = measured here: RFP viability control channel
[2] = measured here: GFP splicing reporter channel

SMILES | AC50 [1] | AC50 [2]
CCOC(=O)c1sc(=NC(=O)c2ccc(C)cc2)n(C)c1C | 8.91 µM [falling, partial curve] | –
COc1ccc(-c2csc(Cc3nnc4n3CCCCC4)n2)cc1OC | – | 15.8 µM [rising, single point]
COc1ccc2[nH]c(N=Nc3ccccc3C)c(O)c2c1 | 3.55 µM [rising, single point] | 3.16 µM [rising, single point]
Cc1onc(-c2ccccc2Cl)c1C(=O)N1CCN(C(=O)c2ccco2)CC1 | 5.62 µM [rising, single point] | 6.31 µM [rising, single point]
COc1ccc2[nH]cc(CCNc3cc(-c4ccc5c(c4)OCO5)ncn3)c2c1 | 12.6 µM [falling, single point] | 11.2 µM [falling, partial curve, poor fit]
CCCCCOc1ccc(C2C(C(C)=O)=C(C)Nc3ncnn32)cc1OC (configuration not stated) | 12.6 µM [rising, single point] | –
CC(=O)Cc1nsc(NC(=O)c2ccc(-c3ccc(F)cc3)o2)n1 | – | 10 µM [falling, partial curve, poor fit]
Cc1ccc(/C=C/C(=O)N2CC(C)CC(C)C2)o1 (configuration not stated) | 11.2 µM [falling, single point] | –
Cc1ccc(-c2cnc(SCC(=O)N3CCCc4ccccc43)n2C)cc1 | 35.5 µM [rising, single point] | 31.6 µM [rising, single point]
O=C(NCCC1=CCCCC1)C1CCC(CNc2nc(=S)[nH]c3ccccc23)CC1 (configuration not stated) | 35.5 µM [falling, single point] | 35.5 µM [falling, single point]
Cc1ccc(-n2c(=S)[nH]c3c(oc4ccccc43)c2=O)cc1C | 14.1 µM [rising, partial curve, poor fit] | –
CC(C)CCNC(=O)c1ccc(Cl)c(N)c1 | 39.8 µM [rising, partial curve, poor fit] | –
COc1ccc(CNC(=O)CSc2nnc(C)n2-c2ccc(F)cc2)cc1 | 14.1 µM [rising, single point] | 3.98 µM [rising, single point]
COc1ccc(-c2coc3cc(OC)cc(O)c3c2=O)cc1 | – | 5.62 µM [rising, partial curve, poor fit]
Cc1ccc[n+](CC(=O)c2ccc(NC(=O)c3ccccc3)cc2)c1 | 20 µM [rising, single point] | –
COc1ccc(NC(=S)NCCSc2ccc(Cl)cc2)c(OC)c1 | 20 µM [rising, single point] | –
Cc1nc(NC(=O)c2ccccc2)sc1-c1csc(N)n1 | 0.224 µM [falling, full curve, poor fit] | –
COc1ccc(CNC(=O)Cn2c(=O)c3cccn3c3ccccc32)cc1 | – | 3.98 µM [falling, full curve, poor fit]
CCc1[nH]nc2c1C(c1ccc(Br)s1)C(C#N)=C(N)O2 (configuration not stated) | 14.1 µM [falling, partial curve] | 28.2 µM [falling, single point]

SMILES | AC50 [1] | AC50 [2]
Cc1ccc(SC(C)C(=O)Nc2ccncc2)cc1 (configuration not stated) | 17.8 µM [rising, partial curve] | –
CCOC(=O)c1c(NC(=O)CNC2CCCc3ccccc32)sc(C(N)=O)c1C (configuration not stated) | 17.8 µM [falling, partial curve, poor fit] | 22.4 µM [falling, partial curve]
Cc1ccc(NS(=O)(=O)c2cccc(C(=O)N/N=C/c3c(C)nn(-c4ccccc4)c3N3CCCC3)c2)c(C)c1 | 35.5 µM [rising, single point] | –
CC(C)Cn1c(=O)c2c(nc3n2CCCN3CCc2ccccc2)n(C)c1=O | 15.8 µM [rising, partial curve] | –
O=C(NCc1ccccc1)NCc1cccs1 | 2.51 µM [rising, partial curve, poor fit] | 5.01 µM [rising, partial curve, poor fit]
CCOC(=O)C1=C(C)NC(=S)N(C(C)=O)C1c1ccc(Cl)cc1 (configuration not stated) | 35.5 µM [rising, single point] | –
COc1ccc2c(Cl)c(-c3nnc(SCC(=O)c4ccccc4)n3C)sc2c1 | 14.1 µM [rising, single point] | –
Cc1cccc(C2NC(c3cccc(C)c3)C([N+](=O)[O-])C(C)(C)C2[N+](=O)[O-])c1 (configuration not stated) | 6.31 µM [rising, partial curve] | 6.31 µM [rising, partial curve]
CCc1cccc(C)c1NC(=O)CO/N=C(\C)c1cc2ccccc2o1 | 22.4 µM [rising, partial curve] | –
Cc1ccc(S(=O)(=O)N2CCN(C(=O)c3nn(C(C)C)c(=O)c4ccccc34)CC2)cc1C | 11.2 µM [rising, single point] | –
Cc1ccc2[nH]c3c(N4CCCCCC4)ncnc3c2c1 | 7.94 µM [rising, single point] | 2.51 µM [rising, full curve, poor fit]
CN(C)CCNC(=O)c1cccc(NS(=O)(=O)c2ccc(Cl)c(Cl)c2)c1 | 5.01 µM [falling, partial curve, poor fit] | –
N#Cc1nc(N)nc(N(c2ccccc2)c2ccccc2)n1 | 35.5 µM [rising, single point] | –
Cc1ccc(C)n1-c1sc2c(c1C(=O)O)CCCC2 | 7.94 µM [falling, partial curve, poor fit] | –
COc1ccc(-n2nc3cc(C)c(N)c(Br)c3n2)cc1 | – | 11.2 µM [rising, partial curve]
Cc1sc(NC(=O)C2CC=CCC2C(=O)O)c(C(=O)OC(C)C)c1C (configuration not stated) | 22.4 µM [rising, single point] | –
CC(C)(C)CC(=O)NC(=S)NCc1ccccc1 | 7.94 µM [rising, full curve, poor fit] | 35.5 µM [rising, partial curve, poor fit]
CCc1cc2c3c(c1)C(C)CC(C)(C)N3C(=O)C2=O (configuration not stated) | 35.5 µM [rising, single point] | –
COc1ccccc1C/C(N)=N/OC(=O)c1ccc2c(c1)OCO2 | 0.00891 µM [falling, full curve, poor fit] | –

Reprinted at random: 3 records from the list, in no set order.
SMILES | AC50 [1] | AC50 [2]
N#Cc1nc(N)nc(N(c2ccccc2)c2ccccc2)n1 | 35.5 µM [rising, single point] | –
Cc1ccc(S(=O)(=O)N2CCN(C(=O)c3nn(C(C)C)c(=O)c4ccccc34)CC2)cc1C | 11.2 µM [rising, single point] | –
Cc1sc(NC(=O)C2CC=CCC2C(=O)O)c(C(=O)OC(C)C)c1C (configuration not stated) | 22.4 µM [rising, single point] | –

Later entries

SMILES | AC50 [1] | AC50 [2]
Cc1cc(C)cc(NC(=O)CSc2nc3c([nH]c4ccccc43)c(=O)n2-c2ccc(F)cc2)c1 | 2.82 µM [falling, full curve] | –
O=C(CSc1nnc(-c2ccccc2)c2ccccc12)NCC1CCCO1 (configuration not stated) | 20 µM [rising, single point] | –
COc1ccccc1OCC(=O)N(Cc1nc(-c2ccccc2)no1)C1CCCCC1 | 12.6 µM [rising, partial curve] | 12.6 µM [rising, single point]
Cc1cc(C)cc(NS(=O)(=O)c2ccc(NC(=S)NC(=O)c3ccc(Br)o3)cc2)c1 | 31.6 µM [rising, single point] | –
Clc1ccc(Nc2nc(NCCN3CCOCC3)nc(N3CCOCC3)n2)cc1 | 11.2 µM [rising, partial curve] | 11.2 µM [rising, single point]
COc1cc(/C=C/C(=O)N2CCCc3ccccc32)cc(OC)c1OC | 15.8 µM [rising, partial curve] | –
Cc1ccccc1NS(=O)(=O)c1cc(C(=O)NCCC2=CCCCC2)ccc1Cl | 11.2 µM [rising, partial curve] | 5.62 µM [rising, full curve, poor fit]
CCc1cccc(C)c1NC(=O)c1ccc(CN2CCc3ccccc3C2)cc1 | 15.8 µM [rising, partial curve] | 7.08 µM [rising, partial curve]
CS(=O)(=O)n1nc(C(=O)N2CCOCC2)nc1N | 8.91 µM [falling, partial curve] | 11.2 µM [falling, partial curve, poor fit]
CCOC(=O)c1c(NC(=O)CSc2ncnc3ccccc23)sc(C)c1C | 1.26 µM [rising, full curve] | 2.24 µM [rising, full curve]
CC(C)CC(=O)NC(=S)NNC(=O)c1ccc([N+](=O)[O-])cc1 | 31.6 µM [rising, single point] | –
COc1ccc(CNC(=O)CSc2n[nH]c(-c3ccc(F)cc3)n2)cc1 | – | 0.708 µM [rising, single point]
COCc1c(C(=O)N2CCN(c3ccc(C(F)(F)F)cn3)CC2)oc2ccccc12 | 31.6 µM [rising, single point] | –
COc1ccc(C(=O)C(c2ccccc2)N2CCOCC2)cc1 (configuration not stated) | 6.31 µM [rising, single point] | –
O=C1CC(c2ccco2)Cc2nc(N3CCc4ccccc4C3)ncc21 (configuration not stated) | 11.2 µM [rising, single point] | 12.6 µM [rising, single point]
Fc1ccc(Nc2nc(SCc3cccc(Cl)c3)nc3ccccc23)cc1 | 25.1 µM [falling, single point] | 35.5 µM [falling, single point]
O=C(Cn1cc2c(n1)CCCCC2)N1CCc2ccccc21 | 12.6 µM [rising, single point] | –
Cc1ccccc1CSCC(=O)NC(=O)NC(C)(C)C | 12.6 µM [rising, single point] | 14.1 µM [rising, single point]

Quoted from the listing:
Entry for COc1ccc(CNC(=O)CSc2n[nH]c(-c3ccc(F)cc3)n2)cc1 under AC50 [2]: 0.708 µM [rising, single point]
Entry for COc1ccc(C(=O)C(c2ccccc2)N2CCOCC2)cc1 (configuration not stated) under AC50 [1]: 6.31 µM [rising, single point]
